Results from paper PMC5341297.
No constants are given. Whether binding was seen depends on the method and setting. In cells and extracts the contact can be indirect. Some results given as binding are weak or reduced against the parent protein; the word gives no strength.

By UniProt entry, the sequences of proteins in these tests, tags left out. Residues count along the entry.
UniProt P05532, residues 25-979: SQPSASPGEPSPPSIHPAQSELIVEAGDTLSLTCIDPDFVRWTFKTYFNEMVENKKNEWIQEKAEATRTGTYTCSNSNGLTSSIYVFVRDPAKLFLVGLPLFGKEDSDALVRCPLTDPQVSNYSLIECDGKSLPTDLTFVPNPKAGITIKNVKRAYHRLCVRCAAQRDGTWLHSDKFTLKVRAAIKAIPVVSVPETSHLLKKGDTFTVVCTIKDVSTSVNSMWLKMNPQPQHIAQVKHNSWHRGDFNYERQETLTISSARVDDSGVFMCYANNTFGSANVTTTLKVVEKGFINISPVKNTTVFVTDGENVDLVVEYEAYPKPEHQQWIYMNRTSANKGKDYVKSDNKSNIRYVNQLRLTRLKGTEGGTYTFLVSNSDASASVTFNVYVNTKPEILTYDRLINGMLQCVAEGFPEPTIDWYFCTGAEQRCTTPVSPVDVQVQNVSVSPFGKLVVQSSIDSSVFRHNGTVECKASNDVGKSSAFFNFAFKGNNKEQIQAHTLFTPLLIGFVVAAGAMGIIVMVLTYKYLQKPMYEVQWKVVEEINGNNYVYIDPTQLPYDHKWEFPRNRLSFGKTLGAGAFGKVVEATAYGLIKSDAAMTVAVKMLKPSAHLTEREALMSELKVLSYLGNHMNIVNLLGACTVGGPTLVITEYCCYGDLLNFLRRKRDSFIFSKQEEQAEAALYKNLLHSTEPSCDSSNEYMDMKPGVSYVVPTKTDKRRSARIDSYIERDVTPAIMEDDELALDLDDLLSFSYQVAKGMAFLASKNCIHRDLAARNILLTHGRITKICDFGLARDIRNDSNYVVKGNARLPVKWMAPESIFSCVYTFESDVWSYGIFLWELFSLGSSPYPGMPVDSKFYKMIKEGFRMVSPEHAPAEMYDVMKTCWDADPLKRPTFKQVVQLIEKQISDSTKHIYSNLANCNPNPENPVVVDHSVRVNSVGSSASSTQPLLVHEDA
UniProt P69566: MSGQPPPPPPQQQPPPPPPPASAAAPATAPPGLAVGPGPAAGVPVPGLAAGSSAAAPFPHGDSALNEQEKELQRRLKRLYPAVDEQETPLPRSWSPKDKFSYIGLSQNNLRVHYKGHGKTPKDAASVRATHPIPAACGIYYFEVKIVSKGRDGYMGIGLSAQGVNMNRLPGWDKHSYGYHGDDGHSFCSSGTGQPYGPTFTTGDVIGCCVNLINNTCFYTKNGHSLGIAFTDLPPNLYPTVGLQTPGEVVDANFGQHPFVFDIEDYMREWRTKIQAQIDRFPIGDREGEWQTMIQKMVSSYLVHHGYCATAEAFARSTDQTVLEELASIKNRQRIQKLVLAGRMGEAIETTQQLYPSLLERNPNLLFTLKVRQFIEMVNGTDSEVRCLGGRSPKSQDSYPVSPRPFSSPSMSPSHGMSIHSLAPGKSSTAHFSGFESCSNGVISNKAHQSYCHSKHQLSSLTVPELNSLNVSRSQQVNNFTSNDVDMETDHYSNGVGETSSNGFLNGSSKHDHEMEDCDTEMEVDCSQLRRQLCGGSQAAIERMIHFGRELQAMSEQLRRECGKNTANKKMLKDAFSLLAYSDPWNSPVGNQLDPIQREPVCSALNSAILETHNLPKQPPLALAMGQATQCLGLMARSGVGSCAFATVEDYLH

Tests used:
[1] = molecular target: c-Kit (tyrosine kinase receptor), expressed from pcDNA 3.1-c-Kit (UniProt P05532); assay: co-IP; HEK293 cells transfected with RanBPM-HA and c-Kit (full-length or deletion mutants); lysed in 1X RIPA buffer; IP overnight at 4°C with anti-c-Kit or anti-HA antibody, protein G beads; Western blot; cells stimulated or not with 100 ng/mL SCF for 30', also with Dasatinib
[2] = molecular target: HA-tagged RanBPM (RanBPM-HA), expressed from pcDNA 3.1 (UniProt P69566); assay: as above
[3] = molecular target: RanBPM, endogenous in mouse testis (mouse (endogenous in testis)) (UniProt P69566); assay: co-IP; testis lysates of 3 month-old wild type mice, endogenous proteins; 1X RIPA buffer; IP overnight at 4°C with two anti-c-Kit antibodies or an anti-RanBPM antibody, protein G beads; Western blot
[4] = molecular target: c-Kit, endogenous in mouse testis (mouse (endogenous in testis)) (UniProt P05532); assay: as above

HA-tagged RanBPM (RanBPM-HA), expressed from pcDNA 3.1 (from UniProt P69566 1-653)
binding [1]: binds

c-Kit (tyrosine kinase receptor), expressed from pcDNA 3.1-c-Kit (from UniProt P05532 25-979)
binding [2]: binds

c-Kit, endogenous in mouse testis (from UniProt P05532 25-979) (receptor)
binding [3]: binds

RanBPM, endogenous in mouse testis (from UniProt P69566 1-653)
binding [4]: binds
